Assay results reported in the supplement of paper PMC6078165.
Values are relative to the signal before dosing, not to a vehicle control; the signal also falls without drug.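 Labels refer to human fibroblasts, largely primary: uterine (C12385, HUF), lung (H6013), bone (Hs27A), adrenal (HADF), skin (WS1), plus mammary HMF and breast cancer-associated Hs343T. Cancer lines are basal-like or mesenchymal-like triple-negative breast cancer. The paper counts as hits responses shifting over 3x the replicate standard deviation. The tissue of the other fibroblasts is not given here.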

Tested on: HCC1143
Assay: relative JC-1 red fluorescence (viability) vs pre-drug, coculture with fibroblast (fraction); higher = more viable cancer cells
Experimental: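 JC-1 labelled TNBC cells cocultured 1:1 (1,500 cells each) with CellTrace Violet stained primary or stromal fibroblasts in 384-well plates in FluoroBrite medium, treated with one of 42 anticancer drugs at 0.1, 1, 10 or 100 uM. JC-1 red fluorescence (mitochondrial integrity in cancer cells only) was read by plate reader every 8 h for 72 h. Values are normalised to each well's pre-drug value. The stock of one drug was tenfold lower, so its dose labels may be too high.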

O=c1[nH]cc(F)c(=O)[nH]1 [Fluorouracil]
relative JC-1 red fluorescence
Details | 8 h | 16 h | 24 h | 32 h | 40 h | 48 h | 56 h | 64 h | 72 h
0.1 µM, coculture fibroblast: C12385 | 0.8552 | 0.789 | 0.694 | 0.626 | 0.545 | 0.507 | 0.471 | 0.425 | 0.403
0.1 µM, coculture fibroblast: H6013 | 0.788 | 0.663 | 0.64 | 0.634 | 0.556 | 0.55 | 0.515 | 0.499 | 0.457
0.1 µM, coculture fibroblast: H6019 | 0.817 | 0.709 | 0.666 | 0.601 | 0.554 | 0.525 | 0.468 | 0.421 | 0.383
0.1 µM, coculture fibroblast: H6076 | 0.805 | 0.754 | 0.717 | 0.665 | 0.618 | 0.604 | 0.583 | 0.555 | 0.566
0.1 µM, coculture fibroblast: H6231 | 0.804 | 0.833 | 0.718 | 0.5588 | 0.588 | 0.544 | 0.508 | 0.4701 | 0.4318
0.1 µM, coculture fibroblast: HADF | 0.769 | 0.677 | 0.644 | 0.671 | 0.588 | 0.574 | 0.537 | 0.51 | 0.494
0.1 µM, coculture fibroblast: HCFa | 0.764 | 0.632 | 0.597 | 0.578 | 0.481 | 0.455 | 0.408 | 0.373 | 0.356
0.1 µM, coculture fibroblast: HCPF | 0.803 | 0.806 | 0.7269 | 0.6298 | 0.632 | 0.6 | 0.56 | 0.52 | 0.5
0.1 µM, coculture fibroblast: HHSteC | 0.8096 | 0.6866 | 0.6393 | 0.605 | 0.519 | 0.4934 | 0.4483 | 0.415 | 0.366
0.1 µM, coculture fibroblast: HMF | 0.7908 | 0.851 | 0.754 | 0.624 | 0.643 | 0.595 | 0.544 | 0.493 | 0.451
0.1 µM, coculture fibroblast: HPFa | 0.92 | 0.829 | 0.774 | 0.696 | 0.616 | 0.576 | 0.524 | 0.472 | 0.434
0.1 µM, coculture fibroblast: HUF | 0.8836 | 0.752 | 0.697 | 0.618 | 0.567 | 0.532 | 0.488 | 0.446 | 0.416
0.1 µM, coculture fibroblast: Hs5 | 0.858 | 0.893 | 0.81691 | 0.7552 | 0.689 | 0.639 | 0.609 | 0.571 | 0.565
0.1 µM, coculture fibroblast: Hs27A | 0.72 | 0.646 | 0.606 | 0.617 | 0.504 | 0.495 | 0.439 | 0.402 | 0.334
0.1 µM, coculture fibroblast: Hs343T | 0.816 | 0.812 | 0.745 | 0.685 | 0.651 | 0.624 | 0.579 | 0.558 | 0.54
0.1 µM, coculture fibroblast: WS1 | 0.808 | 0.687 | 0.633 | 0.564 | 0.507 | 0.471 | 0.4231 | 0.387 | 0.364
1 µM, coculture fibroblast: C12385 | 0.844 | 0.747 | 0.734 | 0.677 | 0.611 | 0.569 | 0.529 | 0.487 | 0.467
1 µM, coculture fibroblast: H6013 | 0.758 | 0.736 | 0.72 | 0.724 | 0.681 | 0.676 | 0.648 | 0.645 | 0.597
1 µM, coculture fibroblast: H6019 | 0.786 | 0.686 | 0.657 | 0.594 | 0.557 | 0.54 | 0.496 | 0.461 | 0.429
1 µM, coculture fibroblast: H6076 | 0.807 | 0.737 | 0.712 | 0.688 | 0.631 | 0.616 | 0.598 | 0.574 | 0.587
1 µM, coculture fibroblast: H6231 | 0.812 | 0.7912 | 0.696 | 0.598 | 0.581 | 0.549 | 0.508 | 0.472 | 0.451
1 µM, coculture fibroblast: HADF | 0.756 | 0.671 | 0.64 | 0.642 | 0.569 | 0.552 | 0.518 | 0.493 | 0.452
1 µM, coculture fibroblast: HCFa | 0.764 | 0.697 | 0.653 | 0.628 | 0.553 | 0.53 | 0.488 | 0.454 | 0.408
1 µM, coculture fibroblast: HCPF | 0.814 | 0.788 | 0.741 | 0.652 | 0.658 | 0.618 | 0.582 | 0.551 | 0.535
1 µM, coculture fibroblast: HHSteC | 0.858 | 0.765 | 0.719 | 0.694 | 0.615 | 0.587 | 0.532 | 0.502 | 0.443
1 µM, coculture fibroblast: HMF | 0.7844 | 0.792 | 0.718 | 0.615 | 0.617 | 0.576 | 0.523 | 0.487 | 0.464
1 µM, coculture fibroblast: HPFa | 0.9163 | 0.811 | 0.7556 | 0.6704 | 0.598 | 0.556 | 0.493 | 0.452 | 0.41
1 µM, coculture fibroblast: HUF | 0.8912 | 0.807 | 0.763 | 0.692 | 0.649 | 0.625 | 0.578 | 0.539 | 0.507
1 µM, coculture fibroblast: Hs5 | 0.8498 | 0.877 | 0.822 | 0.7544 | 0.711 | 0.679 | 0.649 | 0.628 | 0.608
1 µM, coculture fibroblast: Hs27A | 0.727 | 0.634 | 0.605 | 0.612 | 0.51 | 0.516 | 0.49 | 0.48 | 0.433
1 µM, coculture fibroblast: Hs343T | 0.79 | 0.7686 | 0.694 | 0.608 | 0.576 | 0.53 | 0.482 | 0.455 | 0.425
1 µM, coculture fibroblast: WS1 | 0.814 | 0.7096 | 0.674 | 0.601 | 0.559 | 0.522 | 0.473 | 0.442 | 0.415
10 µM, coculture fibroblast: C12385 | 0.856 | 0.7925 | 0.709 | 0.653 | 0.598 | 0.569 | 0.534 | 0.49 | 0.472
10 µM, coculture fibroblast: H6013 | 0.786 | 0.693 | 0.665 | 0.639 | 0.577 | 0.567 | 0.531 | 0.512 | 0.471
10 µM, coculture fibroblast: H6019 | 0.822 | 0.746 | 0.709 | 0.655 | 0.625 | 0.608 | 0.574 | 0.5442 | 0.5248
10 µM, coculture fibroblast: H6076 | 0.77 | 0.7631 | 0.707 | 0.628 | 0.609 | 0.588 | 0.552 | 0.519 | 0.521
10 µM, coculture fibroblast: H6231 | 0.815 | 0.802 | 0.717 | 0.62 | 0.6235 | 0.593 | 0.56 | 0.525 | 0.501
10 µM, coculture fibroblast: HADF | 0.768 | 0.72 | 0.705 | 0.72 | 0.649 | 0.638 | 0.61 | 0.587 | 0.584
10 µM, coculture fibroblast: HCFa | 0.816 | 0.71 | 0.67 | 0.653 | 0.563 | 0.53 | 0.486 | 0.456 | 0.428
10 µM, coculture fibroblast: HCPF | 0.811 | 0.809 | 0.734 | 0.652 | 0.651 | 0.619 | 0.587 | 0.552 | 0.542
10 µM, coculture fibroblast: HHSteC | 0.828 | 0.718 | 0.683 | 0.653 | 0.584 | 0.555 | 0.504 | 0.478 | 0.436
10 µM, coculture fibroblast: HMF | 0.761 | 0.7457 | 0.6802 | 0.6091 | 0.585 | 0.554 | 0.506 | 0.473 | 0.441
10 µM, coculture fibroblast: HPFa | 0.928 | 0.866 | 0.787 | 0.711 | 0.646 | 0.609 | 0.562 | 0.522 | 0.48
10 µM, coculture fibroblast: HUF | 0.851 | 0.741 | 0.654 | 0.568 | 0.507 | 0.481 | 0.437 | 0.405 | 0.373
10 µM, coculture fibroblast: Hs5 | 0.86 | 0.8583 | 0.816 | 0.788 | 0.727 | 0.697 | 0.67 | 0.637 | 0.636
10 µM, coculture fibroblast: Hs27A | 0.747 | 0.681 | 0.678 | 0.708 | 0.632 | 0.641 | 0.617 | 0.612 | 0.604
10 µM, coculture fibroblast: Hs343T | 0.7931 | 0.839 | 0.7571 | 0.644 | 0.6545 | 0.61 | 0.554 | 0.517 | 0.474
10 µM, coculture fibroblast: WS1 | 0.848 | 0.758 | 0.691 | 0.618 | 0.572 | 0.547 | 0.516 | 0.479 | 0.457
100 µM, coculture fibroblast: C12385 | 0.855 | 0.788 | 0.767 | 0.722 | 0.672 | 0.645 | 0.616 | 0.587 | 0.576
100 µM, coculture fibroblast: H6013 | 0.707 | 0.62 | 0.559 | 0.541 | 0.469 | 0.446 | 0.415 | 0.396 | 0.375
100 µM, coculture fibroblast: H6019 | 0.803 | 0.739 | 0.702 | 0.645 | 0.607 | 0.591 | 0.555 | 0.528 | 0.498
100 µM, coculture fibroblast: H6076 | 0.797 | 0.766 | 0.748 | 0.728 | 0.671 | 0.671 | 0.64 | 0.627 | 0.644
100 µM, coculture fibroblast: H6231 | 0.774 | 0.735 | 0.67 | 0.604 | 0.582 | 0.556 | 0.521 | 0.496 | 0.49
100 µM, coculture fibroblast: HADF | 0.769 | 0.684 | 0.648 | 0.633 | 0.559 | 0.541 | 0.514 | 0.489 | 0.452
100 µM, coculture fibroblast: HCFa | 0.804 | 0.703 | 0.643 | 0.623 | 0.546 | 0.515 | 0.471 | 0.436 | 0.413
100 µM, coculture fibroblast: HCPF | 0.8161 | 0.811 | 0.766 | 0.67 | 0.692 | 0.656 | 0.617 | 0.588 | 0.573
100 µM, coculture fibroblast: HHSteC | 0.775 | 0.702 | 0.652 | 0.608 | 0.54 | 0.512 | 0.469 | 0.438 | 0.39
100 µM, coculture fibroblast: HMF | 0.765 | 0.775 | 0.706 | 0.63 | 0.61 | 0.578 | 0.532 | 0.505 | 0.487
100 µM, coculture fibroblast: HPFa | 0.9074 | 0.81 | 0.7841 | 0.71 | 0.65 | 0.622 | 0.579 | 0.55 | 0.521
100 µM, coculture fibroblast: HUF | 0.829 | 0.717 | 0.672 | 0.603 | 0.565 | 0.546 | 0.505 | 0.477 | 0.456
100 µM, coculture fibroblast: Hs5 | 0.8471 | 0.805 | 0.782 | 0.765 | 0.686 | 0.66 | 0.644 | 0.636 | 0.638
100 µM, coculture fibroblast: Hs27A | 0.737 | 0.653 | 0.611 | 0.628 | 0.517 | 0.509 | 0.476 | 0.465 | 0.46
100 µM, coculture fibroblast: Hs343T | 0.797 | 0.771 | 0.718 | 0.684 | 0.649 | 0.624 | 0.584 | 0.567 | 0.548
100 µM, coculture fibroblast: WS1 | 0.805 | 0.7437 | 0.7124 | 0.6496 | 0.6115 | 0.584 | 0.548 | 0.53 | 0.505
